{"sequences": {"note": "Protein sequences, listed by entry. Tags and fused reporters are not part of them. Residues count along the entry.", "UniProt P32004, residues 920-1115": "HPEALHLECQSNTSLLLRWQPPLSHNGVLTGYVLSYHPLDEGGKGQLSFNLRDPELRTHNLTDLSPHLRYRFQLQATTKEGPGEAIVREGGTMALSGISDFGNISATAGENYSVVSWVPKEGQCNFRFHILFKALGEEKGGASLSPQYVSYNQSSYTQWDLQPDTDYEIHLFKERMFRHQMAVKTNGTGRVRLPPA"}, "source": "patent US20170306015A1", "about": "(DEUTSCHES KREBSFORSCHUNGSZENTRUM STIFTUNG DES FFENTLICHEN …, published 2017)", "binders": {"B1": {"name": "monoclonal antibody L1-OV52.24 (antibody, IgG1, V domains shown)", "VH": "EVQLQQSGAELVRPGALVKLSCKASGFNIKDYYMQWVKQRPEQGLEWIGWIDPENGKTVFDPKFRGKASISADTSSNTAYLQLSSLTSEDTAVYYCARWNPLAFWGQGTLVTVSS", "VL": "DIVMTQSQKFMSTSVGDRVSVTCKASQNVGTNVAWYQQKPGHSPKALIYSTSYRYSGVPDRFTGSGSGTDFTLTIRNVQSEDLAEYFCQQYNTYPYTFGGGTKLEIK", "notes": "also called mAb L1-OV52.24; L1CAM mAb OV52.24"}}, "biological_target": "4-5FNIII domain of L1 (recombinant L1 fragment) (human) (UniProt P32004)", "assay": "Western blot with recombinant L1 fragments", "note": "Results are given in words; binding and its absence hold for the method and conditions named. Some entries that bind do so weakly or less than the wild type."}
{"binder": "B1", "values": [{"measurement": "binding", "result": "binds"}]}
